# The supplement of paper PMC11006884
# The chains behind the UniProt entries cited, without tags or fusion partners. Where a name states a change or a piece, a line headed by the entry shows the natural chain unless it says otherwise.
# UniProt Q08J23, whole entry, looked up: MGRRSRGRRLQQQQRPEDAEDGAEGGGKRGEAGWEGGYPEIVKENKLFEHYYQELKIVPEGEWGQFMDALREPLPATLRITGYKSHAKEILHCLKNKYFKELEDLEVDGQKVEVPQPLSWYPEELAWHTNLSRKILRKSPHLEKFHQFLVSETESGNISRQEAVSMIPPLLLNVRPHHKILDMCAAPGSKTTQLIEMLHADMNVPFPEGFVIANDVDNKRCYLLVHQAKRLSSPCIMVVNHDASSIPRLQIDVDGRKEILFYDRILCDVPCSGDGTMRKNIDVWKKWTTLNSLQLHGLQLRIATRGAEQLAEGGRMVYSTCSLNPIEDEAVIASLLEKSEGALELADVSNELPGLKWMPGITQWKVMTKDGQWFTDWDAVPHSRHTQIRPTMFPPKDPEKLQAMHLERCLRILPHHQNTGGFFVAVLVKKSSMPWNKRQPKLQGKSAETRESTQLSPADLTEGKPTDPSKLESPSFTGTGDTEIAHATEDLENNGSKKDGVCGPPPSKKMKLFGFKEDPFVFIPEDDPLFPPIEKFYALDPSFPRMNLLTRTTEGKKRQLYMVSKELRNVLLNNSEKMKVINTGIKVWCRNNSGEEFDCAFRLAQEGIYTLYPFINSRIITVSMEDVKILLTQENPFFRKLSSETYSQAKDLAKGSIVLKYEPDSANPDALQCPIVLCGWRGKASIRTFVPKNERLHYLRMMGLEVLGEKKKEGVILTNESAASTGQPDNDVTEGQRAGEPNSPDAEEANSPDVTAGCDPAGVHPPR
# UniProt Q13418: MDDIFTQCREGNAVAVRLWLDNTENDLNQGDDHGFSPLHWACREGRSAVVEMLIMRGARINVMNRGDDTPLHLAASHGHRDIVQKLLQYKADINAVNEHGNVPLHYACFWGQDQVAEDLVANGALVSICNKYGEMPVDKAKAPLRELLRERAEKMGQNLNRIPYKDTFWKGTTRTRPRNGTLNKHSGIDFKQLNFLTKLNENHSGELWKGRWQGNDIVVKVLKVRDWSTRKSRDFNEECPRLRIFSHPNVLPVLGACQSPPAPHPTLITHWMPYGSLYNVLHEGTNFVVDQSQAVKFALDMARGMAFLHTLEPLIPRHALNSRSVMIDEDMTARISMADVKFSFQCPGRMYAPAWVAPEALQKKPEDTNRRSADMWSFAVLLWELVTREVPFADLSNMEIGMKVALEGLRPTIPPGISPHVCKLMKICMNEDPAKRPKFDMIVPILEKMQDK
# UniProt Q13155: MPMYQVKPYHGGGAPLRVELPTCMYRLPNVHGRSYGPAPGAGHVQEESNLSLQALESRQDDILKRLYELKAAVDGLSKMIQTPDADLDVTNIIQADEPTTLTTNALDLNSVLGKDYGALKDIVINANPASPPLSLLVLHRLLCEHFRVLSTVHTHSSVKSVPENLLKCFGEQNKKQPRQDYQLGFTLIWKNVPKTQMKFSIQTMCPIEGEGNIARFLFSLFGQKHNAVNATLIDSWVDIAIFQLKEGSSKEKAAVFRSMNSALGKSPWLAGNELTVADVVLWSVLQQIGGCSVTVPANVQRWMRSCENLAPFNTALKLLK
# UniProt Q13163: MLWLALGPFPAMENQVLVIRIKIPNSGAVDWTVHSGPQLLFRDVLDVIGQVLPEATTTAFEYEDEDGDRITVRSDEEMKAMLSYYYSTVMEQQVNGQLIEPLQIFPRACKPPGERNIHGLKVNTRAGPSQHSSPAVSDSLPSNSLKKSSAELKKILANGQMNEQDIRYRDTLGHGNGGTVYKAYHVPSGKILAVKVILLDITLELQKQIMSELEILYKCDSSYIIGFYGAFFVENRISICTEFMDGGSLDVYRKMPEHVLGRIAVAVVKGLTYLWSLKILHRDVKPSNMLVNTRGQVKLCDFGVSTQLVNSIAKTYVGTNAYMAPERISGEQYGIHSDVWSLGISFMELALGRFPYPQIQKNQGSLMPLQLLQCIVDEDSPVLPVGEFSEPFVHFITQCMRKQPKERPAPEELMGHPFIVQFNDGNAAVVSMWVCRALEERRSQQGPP
# UniProt Q13308: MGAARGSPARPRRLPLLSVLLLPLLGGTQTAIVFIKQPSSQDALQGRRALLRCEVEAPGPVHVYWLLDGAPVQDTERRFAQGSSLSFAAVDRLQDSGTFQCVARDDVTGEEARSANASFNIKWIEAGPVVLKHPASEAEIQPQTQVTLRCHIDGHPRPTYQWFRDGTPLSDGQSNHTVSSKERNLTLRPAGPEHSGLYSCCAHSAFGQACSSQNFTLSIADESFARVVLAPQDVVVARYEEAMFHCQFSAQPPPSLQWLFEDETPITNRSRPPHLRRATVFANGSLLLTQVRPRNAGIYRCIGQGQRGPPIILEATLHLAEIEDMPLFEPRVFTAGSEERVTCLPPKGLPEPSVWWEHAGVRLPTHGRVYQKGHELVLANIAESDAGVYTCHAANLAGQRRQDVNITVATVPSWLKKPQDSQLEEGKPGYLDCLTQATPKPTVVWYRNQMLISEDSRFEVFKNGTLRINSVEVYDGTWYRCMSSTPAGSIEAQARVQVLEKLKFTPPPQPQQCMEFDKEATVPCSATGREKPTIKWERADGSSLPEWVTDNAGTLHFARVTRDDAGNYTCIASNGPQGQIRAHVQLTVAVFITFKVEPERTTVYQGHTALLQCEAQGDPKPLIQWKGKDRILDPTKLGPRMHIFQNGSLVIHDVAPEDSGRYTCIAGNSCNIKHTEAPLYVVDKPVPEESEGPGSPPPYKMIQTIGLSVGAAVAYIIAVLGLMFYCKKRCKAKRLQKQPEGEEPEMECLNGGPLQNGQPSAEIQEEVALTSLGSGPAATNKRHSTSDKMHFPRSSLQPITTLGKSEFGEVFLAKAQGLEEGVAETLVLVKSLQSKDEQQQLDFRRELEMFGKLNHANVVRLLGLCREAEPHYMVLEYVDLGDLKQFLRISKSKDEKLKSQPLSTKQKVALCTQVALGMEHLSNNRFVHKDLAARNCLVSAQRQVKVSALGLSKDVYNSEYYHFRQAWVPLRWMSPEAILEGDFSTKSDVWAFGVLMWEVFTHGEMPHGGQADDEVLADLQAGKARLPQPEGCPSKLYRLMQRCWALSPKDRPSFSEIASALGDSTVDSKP
# UniProt Q04724: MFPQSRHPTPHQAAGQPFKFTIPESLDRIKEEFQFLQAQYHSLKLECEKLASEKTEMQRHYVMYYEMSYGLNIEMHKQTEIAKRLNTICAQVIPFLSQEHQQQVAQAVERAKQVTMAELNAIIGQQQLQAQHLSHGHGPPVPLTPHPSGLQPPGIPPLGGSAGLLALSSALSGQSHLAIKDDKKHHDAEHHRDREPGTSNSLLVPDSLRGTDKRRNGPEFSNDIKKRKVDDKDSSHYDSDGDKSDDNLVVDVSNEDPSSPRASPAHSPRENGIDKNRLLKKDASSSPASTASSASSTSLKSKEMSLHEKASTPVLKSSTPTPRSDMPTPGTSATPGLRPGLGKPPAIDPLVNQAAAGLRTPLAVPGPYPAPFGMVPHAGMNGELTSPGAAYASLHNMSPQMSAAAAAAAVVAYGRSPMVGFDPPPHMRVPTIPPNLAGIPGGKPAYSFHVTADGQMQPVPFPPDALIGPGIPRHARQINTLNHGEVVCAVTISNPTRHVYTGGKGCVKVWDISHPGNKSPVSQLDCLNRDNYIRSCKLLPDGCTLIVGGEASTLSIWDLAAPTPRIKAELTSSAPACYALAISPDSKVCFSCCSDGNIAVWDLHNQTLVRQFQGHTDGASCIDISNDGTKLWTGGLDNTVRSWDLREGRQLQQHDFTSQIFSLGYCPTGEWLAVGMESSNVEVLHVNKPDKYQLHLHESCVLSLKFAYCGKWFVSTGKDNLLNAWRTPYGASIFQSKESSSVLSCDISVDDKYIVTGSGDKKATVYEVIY
# UniProt Q13162: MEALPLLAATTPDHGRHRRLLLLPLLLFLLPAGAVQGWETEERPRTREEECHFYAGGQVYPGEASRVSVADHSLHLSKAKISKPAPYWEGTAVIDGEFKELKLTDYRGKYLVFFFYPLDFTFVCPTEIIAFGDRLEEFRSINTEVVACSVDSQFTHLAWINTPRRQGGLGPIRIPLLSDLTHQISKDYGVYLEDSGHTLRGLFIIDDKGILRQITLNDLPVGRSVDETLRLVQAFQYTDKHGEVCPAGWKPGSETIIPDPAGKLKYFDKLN
# UniProt Q13395: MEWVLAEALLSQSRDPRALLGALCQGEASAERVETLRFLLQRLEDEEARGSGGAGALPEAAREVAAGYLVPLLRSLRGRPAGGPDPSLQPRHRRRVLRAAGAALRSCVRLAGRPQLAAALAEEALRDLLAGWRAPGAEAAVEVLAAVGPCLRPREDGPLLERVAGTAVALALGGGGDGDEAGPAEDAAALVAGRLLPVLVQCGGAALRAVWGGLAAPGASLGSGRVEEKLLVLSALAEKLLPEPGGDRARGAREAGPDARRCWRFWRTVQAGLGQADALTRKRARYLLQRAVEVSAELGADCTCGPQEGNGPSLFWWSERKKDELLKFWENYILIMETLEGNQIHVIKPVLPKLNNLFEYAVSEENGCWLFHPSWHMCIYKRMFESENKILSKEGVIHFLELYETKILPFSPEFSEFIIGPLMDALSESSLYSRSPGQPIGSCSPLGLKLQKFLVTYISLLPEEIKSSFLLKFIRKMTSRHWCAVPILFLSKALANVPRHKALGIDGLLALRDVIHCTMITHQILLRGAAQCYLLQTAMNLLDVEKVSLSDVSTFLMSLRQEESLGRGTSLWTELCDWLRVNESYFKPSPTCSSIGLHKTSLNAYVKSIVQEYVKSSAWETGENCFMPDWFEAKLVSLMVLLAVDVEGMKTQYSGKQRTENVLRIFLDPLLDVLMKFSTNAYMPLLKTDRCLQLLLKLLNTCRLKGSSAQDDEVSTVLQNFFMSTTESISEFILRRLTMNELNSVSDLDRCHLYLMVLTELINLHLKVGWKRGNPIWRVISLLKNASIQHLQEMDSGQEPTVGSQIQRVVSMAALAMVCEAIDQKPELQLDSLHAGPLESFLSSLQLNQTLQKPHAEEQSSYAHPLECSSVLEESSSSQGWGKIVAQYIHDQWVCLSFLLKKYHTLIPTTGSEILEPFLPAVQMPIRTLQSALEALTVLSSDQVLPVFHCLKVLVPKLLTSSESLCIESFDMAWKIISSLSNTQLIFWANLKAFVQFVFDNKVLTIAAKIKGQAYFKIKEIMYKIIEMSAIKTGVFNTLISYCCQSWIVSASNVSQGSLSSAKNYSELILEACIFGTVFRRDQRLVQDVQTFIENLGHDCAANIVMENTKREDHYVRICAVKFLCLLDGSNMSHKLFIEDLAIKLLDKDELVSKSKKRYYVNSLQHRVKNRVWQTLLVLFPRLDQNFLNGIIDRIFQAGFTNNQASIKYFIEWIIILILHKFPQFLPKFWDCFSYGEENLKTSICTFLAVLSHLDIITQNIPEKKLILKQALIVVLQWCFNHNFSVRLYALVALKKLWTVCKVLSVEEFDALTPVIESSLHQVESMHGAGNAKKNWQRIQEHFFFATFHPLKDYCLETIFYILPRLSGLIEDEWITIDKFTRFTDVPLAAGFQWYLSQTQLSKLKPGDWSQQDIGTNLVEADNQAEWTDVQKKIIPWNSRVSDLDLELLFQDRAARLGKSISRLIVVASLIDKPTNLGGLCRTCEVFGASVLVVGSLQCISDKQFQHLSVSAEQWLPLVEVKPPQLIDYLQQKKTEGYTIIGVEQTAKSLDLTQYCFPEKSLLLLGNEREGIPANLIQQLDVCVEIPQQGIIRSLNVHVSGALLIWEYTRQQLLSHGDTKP
# UniProt Q07866: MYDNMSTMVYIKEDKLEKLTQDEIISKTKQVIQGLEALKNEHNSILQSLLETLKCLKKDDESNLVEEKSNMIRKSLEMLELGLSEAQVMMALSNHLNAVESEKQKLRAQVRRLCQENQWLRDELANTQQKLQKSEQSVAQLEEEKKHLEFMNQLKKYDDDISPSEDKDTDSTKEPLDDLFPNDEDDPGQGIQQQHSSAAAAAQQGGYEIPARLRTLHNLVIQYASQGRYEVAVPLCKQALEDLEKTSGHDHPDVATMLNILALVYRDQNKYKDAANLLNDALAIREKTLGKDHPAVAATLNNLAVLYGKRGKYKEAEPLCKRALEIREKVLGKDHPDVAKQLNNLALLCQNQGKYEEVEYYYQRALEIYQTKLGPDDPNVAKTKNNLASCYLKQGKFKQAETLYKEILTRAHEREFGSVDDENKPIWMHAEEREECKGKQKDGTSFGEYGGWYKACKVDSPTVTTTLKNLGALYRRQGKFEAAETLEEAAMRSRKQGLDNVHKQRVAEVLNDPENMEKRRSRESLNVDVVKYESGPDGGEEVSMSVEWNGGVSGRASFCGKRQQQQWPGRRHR
# The entries are a selection whose mix differs from that of the whole data set.
# Compound: COC(=O)C#Cc1ccccc1 [methyl 3-phenylpropiolate]
# Assay: log2 ratio of iodoacetamide-alkyne labeling of the cysteine site, DMSO over compound (competition); higher = stronger covalent engagement of the cysteine by the compound, active = 1 or more
# Settings: 500 µM; treatment time 1 h; system: HEK293T cell lysate
# Summary of the method: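 For each cysteine, the log2 competition ratio is mean control-channel reporter intensity over mean compound-channel reporter intensity. HEK293T lysate (2 mg/mL) was exposed to vehicle or electrophile (500 µM, 1 h, ambient temperature), labelled with iodoacetamide alkyne (1 h), clicked to sCIP-TMT reagents, digested overnight with trypsin at 37 °C, streptavidin-enriched and analysed by Orbitrap Eclipse LC-MS/MS with FAIMS and FragPipe. Cysteines quantified in only one of three replicates, each with duplicate channels, were excluded.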
row,Target,log2 ratio of iodoacetamide-alkyne labeling
1,UniProt Q02750_C277,inactive: 0.399
2,NSUN2 C599 (UniProt Q08J23),inactive: 0.0845
3,GABPA C338 (UniProt Q06546),inactive: 0.308
4,ILK C422 (UniProt Q13418),inactive: 0.358
5,UniProt Q13155_C306,inactive: 0.55
6,RPL6 C44 (UniProt Q02878),inactive: 0.726
7,UniProt Q13163_C300,inactive: -0.976
8,PTK7 C911 (UniProt Q13308),inactive: 0.605
9,TLE1 C526 (UniProt Q04724),active: 1.15
10,FMR1 C584 (UniProt Q06787),inactive: 0.303
11,PRDX4 C51 (UniProt Q13162),active: 1.66
12,UniProt Q08170_C115,inactive: -0.0754
13,TARBP1 C483 (UniProt Q13395),active: 1.21
14,KLC1 C114 (UniProt Q07866),inactive: 0.218
15,EEF1A2 C326 (UniProt Q05639),inactive: 0.25

# Single values from the results shown:
# ILK C422 (UniProt Q13418) – log2 ratio of iodoacetamide-alkyne labeling: inactive: 0.358
# UniProt Q13155_C306 – log2 ratio of iodoacetamide-alkyne labeling: inactive: 0.55
